# Results as given in the supplement of paper PMC12823440, “Inhibitors supercharge kinase turnover through native proteolytic circuits” (Nature, 2025).
# Amino acid sequences for entries named in this document (tags omitted). A change or cut given only in a name is not applied to a line headed by its entry.
# UniProt Q16288, whole entry, looked up: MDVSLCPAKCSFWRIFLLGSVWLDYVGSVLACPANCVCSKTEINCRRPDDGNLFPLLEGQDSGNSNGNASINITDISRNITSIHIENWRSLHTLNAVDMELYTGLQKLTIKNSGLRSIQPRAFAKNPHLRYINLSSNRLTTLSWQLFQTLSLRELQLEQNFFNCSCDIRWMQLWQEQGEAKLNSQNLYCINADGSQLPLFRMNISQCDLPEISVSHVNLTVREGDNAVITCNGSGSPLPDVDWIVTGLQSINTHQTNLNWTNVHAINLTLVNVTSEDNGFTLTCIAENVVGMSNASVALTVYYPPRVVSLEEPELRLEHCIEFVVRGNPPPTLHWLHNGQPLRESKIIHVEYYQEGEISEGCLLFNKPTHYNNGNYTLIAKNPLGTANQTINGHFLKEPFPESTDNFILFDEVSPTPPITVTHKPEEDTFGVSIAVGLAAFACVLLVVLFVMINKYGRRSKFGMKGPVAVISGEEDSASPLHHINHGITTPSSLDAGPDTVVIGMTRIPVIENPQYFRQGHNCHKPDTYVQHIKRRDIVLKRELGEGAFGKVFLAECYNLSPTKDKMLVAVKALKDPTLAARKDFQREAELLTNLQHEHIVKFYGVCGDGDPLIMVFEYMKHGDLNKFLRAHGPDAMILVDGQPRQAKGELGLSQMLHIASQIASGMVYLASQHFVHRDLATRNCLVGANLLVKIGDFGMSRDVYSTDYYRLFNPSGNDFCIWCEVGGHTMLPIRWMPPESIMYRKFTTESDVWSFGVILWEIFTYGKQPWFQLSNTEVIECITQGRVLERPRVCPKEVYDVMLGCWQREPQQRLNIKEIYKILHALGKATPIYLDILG
# UniProt Q12851: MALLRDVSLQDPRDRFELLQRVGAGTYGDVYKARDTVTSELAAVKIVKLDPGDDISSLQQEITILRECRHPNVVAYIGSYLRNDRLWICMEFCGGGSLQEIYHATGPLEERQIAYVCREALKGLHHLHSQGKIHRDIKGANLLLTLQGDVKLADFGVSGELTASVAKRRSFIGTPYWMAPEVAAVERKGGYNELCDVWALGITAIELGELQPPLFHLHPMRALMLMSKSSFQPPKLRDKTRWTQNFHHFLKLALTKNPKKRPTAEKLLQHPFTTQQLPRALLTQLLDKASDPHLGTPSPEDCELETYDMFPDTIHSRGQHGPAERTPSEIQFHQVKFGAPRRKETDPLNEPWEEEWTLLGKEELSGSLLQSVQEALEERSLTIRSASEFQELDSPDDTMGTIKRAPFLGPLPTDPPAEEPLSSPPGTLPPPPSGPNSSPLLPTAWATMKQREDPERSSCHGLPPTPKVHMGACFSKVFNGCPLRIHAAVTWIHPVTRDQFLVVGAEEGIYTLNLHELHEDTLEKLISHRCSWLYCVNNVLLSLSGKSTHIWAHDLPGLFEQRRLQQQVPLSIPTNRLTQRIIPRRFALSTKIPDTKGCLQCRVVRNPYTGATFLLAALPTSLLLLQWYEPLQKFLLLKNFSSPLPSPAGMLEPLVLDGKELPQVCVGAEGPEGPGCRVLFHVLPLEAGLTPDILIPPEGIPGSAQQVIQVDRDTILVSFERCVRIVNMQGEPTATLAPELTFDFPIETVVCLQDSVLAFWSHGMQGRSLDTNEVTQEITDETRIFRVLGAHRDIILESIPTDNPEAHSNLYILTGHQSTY
# UniProt P06239: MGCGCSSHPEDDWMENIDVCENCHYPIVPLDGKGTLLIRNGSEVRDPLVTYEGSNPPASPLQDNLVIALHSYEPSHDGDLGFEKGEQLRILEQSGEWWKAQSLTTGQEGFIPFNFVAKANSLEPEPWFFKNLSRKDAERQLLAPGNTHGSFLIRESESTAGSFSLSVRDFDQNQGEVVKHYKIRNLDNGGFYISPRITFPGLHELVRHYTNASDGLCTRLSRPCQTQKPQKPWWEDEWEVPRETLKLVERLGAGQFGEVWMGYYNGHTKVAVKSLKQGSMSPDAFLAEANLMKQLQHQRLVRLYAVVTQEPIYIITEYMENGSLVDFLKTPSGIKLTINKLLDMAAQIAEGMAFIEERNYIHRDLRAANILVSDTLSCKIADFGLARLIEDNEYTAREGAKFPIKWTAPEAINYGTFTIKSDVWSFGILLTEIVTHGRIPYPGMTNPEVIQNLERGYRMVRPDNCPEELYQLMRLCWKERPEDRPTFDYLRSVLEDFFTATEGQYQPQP
# UniProt P53671: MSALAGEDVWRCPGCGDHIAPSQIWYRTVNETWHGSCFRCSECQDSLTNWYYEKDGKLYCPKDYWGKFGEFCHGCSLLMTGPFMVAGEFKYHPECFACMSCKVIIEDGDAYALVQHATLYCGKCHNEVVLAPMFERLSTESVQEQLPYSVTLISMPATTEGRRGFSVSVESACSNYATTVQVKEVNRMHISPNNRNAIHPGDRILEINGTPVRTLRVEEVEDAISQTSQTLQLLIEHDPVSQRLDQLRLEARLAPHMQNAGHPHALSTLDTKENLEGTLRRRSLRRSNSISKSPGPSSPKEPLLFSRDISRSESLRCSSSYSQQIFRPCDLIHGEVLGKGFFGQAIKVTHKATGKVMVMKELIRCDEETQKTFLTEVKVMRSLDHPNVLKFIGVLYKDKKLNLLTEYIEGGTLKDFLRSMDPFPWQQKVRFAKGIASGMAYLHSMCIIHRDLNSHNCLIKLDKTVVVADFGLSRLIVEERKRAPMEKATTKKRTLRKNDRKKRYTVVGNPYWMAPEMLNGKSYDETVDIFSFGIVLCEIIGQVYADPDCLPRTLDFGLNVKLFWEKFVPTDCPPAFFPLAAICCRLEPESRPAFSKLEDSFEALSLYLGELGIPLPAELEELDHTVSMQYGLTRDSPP
# UniProt O96017, whole entry: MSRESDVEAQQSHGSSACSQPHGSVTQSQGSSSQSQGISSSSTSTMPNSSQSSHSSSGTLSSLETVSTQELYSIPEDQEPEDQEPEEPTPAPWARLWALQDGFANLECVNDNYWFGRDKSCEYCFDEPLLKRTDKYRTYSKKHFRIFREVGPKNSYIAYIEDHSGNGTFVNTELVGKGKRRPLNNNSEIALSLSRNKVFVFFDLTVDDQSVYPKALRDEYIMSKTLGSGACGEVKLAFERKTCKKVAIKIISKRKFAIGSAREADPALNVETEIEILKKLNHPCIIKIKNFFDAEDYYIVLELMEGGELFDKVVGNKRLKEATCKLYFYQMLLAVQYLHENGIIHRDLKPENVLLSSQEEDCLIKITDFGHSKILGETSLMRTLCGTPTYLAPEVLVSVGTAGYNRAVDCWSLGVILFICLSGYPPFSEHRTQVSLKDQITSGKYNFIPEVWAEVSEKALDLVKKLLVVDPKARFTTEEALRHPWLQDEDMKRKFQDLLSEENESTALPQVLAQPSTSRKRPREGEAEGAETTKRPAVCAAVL
# UniProt P51451: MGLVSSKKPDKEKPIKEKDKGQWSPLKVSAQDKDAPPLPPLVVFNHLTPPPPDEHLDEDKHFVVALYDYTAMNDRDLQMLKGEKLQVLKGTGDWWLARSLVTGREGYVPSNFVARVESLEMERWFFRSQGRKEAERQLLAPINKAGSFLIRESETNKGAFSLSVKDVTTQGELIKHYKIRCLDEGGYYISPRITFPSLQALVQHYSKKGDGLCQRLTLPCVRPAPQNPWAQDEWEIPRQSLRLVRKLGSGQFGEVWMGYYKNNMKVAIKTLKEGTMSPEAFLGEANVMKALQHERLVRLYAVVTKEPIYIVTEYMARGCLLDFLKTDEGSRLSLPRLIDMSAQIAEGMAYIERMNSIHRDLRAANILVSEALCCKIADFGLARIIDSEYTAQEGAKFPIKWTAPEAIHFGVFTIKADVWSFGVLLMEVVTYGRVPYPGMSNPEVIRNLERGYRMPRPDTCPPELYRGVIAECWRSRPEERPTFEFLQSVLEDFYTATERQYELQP
# UniProt P31152, whole entry: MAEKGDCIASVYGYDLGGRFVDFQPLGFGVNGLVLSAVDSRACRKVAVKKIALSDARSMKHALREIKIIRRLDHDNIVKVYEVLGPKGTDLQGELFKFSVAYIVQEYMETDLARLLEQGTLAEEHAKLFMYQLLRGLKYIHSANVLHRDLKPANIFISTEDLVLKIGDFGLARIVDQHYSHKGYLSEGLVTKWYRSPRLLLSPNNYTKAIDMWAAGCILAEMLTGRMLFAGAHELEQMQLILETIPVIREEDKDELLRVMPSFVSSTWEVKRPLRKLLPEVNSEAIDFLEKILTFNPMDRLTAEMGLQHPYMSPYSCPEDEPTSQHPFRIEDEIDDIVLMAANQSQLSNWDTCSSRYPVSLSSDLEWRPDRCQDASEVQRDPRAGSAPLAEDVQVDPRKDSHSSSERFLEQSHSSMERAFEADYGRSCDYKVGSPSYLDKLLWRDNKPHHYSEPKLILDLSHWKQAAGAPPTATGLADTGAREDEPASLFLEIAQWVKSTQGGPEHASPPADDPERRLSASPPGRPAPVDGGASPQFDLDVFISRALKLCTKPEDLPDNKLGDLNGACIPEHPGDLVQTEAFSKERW
# UniProt Q96GD4, whole entry: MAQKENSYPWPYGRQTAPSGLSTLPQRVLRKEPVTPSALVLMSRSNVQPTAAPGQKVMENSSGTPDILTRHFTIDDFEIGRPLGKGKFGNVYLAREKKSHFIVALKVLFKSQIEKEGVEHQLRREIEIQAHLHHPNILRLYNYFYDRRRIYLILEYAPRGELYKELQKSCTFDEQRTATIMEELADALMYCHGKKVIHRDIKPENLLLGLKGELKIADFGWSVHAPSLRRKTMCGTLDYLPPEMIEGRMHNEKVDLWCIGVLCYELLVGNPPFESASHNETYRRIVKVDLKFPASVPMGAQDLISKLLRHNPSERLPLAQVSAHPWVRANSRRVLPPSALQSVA
# UniProt Q9UM73: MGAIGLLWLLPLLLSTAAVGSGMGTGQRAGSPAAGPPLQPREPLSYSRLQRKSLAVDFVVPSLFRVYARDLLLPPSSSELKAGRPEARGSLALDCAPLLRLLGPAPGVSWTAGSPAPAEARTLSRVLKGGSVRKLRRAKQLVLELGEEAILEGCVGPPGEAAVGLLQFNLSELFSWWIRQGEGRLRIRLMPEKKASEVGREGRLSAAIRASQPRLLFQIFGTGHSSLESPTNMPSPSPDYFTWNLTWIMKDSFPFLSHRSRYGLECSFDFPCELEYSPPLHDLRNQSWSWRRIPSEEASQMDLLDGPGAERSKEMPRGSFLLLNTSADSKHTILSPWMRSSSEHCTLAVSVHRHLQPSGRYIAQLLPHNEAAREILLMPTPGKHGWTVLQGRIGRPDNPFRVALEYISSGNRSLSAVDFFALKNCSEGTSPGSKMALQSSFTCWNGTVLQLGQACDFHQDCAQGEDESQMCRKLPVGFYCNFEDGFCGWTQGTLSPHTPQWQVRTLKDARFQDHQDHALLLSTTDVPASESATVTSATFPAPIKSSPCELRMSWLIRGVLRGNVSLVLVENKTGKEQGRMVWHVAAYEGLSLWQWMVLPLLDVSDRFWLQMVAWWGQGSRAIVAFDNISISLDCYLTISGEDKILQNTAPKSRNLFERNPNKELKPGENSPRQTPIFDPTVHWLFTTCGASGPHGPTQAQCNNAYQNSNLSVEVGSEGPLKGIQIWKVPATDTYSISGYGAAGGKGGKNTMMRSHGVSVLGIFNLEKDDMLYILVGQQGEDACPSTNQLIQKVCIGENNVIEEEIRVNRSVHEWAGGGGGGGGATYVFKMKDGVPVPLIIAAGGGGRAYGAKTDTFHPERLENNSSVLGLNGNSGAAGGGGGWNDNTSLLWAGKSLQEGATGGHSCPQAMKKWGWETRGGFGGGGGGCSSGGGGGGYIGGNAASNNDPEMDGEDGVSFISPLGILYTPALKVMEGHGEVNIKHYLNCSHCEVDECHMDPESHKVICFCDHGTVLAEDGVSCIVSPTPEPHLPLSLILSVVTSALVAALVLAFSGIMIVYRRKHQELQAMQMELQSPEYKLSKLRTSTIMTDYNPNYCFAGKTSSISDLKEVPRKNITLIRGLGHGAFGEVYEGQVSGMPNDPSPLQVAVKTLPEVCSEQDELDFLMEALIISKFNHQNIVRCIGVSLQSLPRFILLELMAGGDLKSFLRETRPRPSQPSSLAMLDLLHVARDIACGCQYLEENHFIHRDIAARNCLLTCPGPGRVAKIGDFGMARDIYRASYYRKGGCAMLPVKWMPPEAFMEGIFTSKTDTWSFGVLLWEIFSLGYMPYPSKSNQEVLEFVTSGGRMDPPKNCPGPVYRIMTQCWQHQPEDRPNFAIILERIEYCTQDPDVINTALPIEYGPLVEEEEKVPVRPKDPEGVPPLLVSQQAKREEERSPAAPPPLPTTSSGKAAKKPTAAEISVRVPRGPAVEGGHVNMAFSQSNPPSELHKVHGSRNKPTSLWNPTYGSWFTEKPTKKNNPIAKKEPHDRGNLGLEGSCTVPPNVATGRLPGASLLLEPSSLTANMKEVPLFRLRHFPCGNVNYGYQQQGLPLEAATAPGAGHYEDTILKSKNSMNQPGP
# The other results are listed elsewhere or left out. The calls rarely recur for the same compound in another form.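 In K562 cells expressing nanoluciferase-fused kinases, luminescence was recorded at 4 h intervals between 2 and 18 h, normalized as percent of control with DMSO at 100% and a positive control at 0%. A significant (2 sigma) signal drop marks a time point as decreased. The authors' rule for a hit is not shown and takes in more than the number of time points.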
# What was measured:
# Assay in all cases: number of time points (of 5) at which kinase-Nluc abundance scored as decreased, DMSO-normalised (count); higher = more persistent destabilization
# Lorlatinib = compound: C[C@H]1Oc2cc(cnc2N)-c2c(nn(C)c2C#N)CN(C)C(=O)c2ccc(F)cc21 [Lorlatinib]; settings: 10 µM; K562; 2-18 h
# [1] = compound: Cc1cc(C)n2c1C=C1C=CC(CCC(=O)NCCN3CCN(C/C=C/C(=O)N4CCCC(n5nc(-c6ccc(Oc7ccccc7)cc6)c6c(N)ncnc65)C4)CC3)=[N+]1[B-]2(F)F; settings: 2.5 µM; K562; 2-18 h
# ENMD-2076 (Tartrate) = compound: Cc1cc(Nc2cc(N3CCN(C)CC3)nc(/C=C/c3ccccc3)n2)n[nH]1 [ENMD-2076 (Tartrate)]; settings: 2.5 µM; K562; 2-18 h
# [2] = compound: Cc1cc(Nc2cc(N3CCN(C)CC3)nc(/C=C/c3ccccc3)n2)n[nH]1; settings: 2.5 µM; K562; 2-18 h
# Brivanib = compound: Cc1cc2c(F)c(Oc3ncnn4cc(OC[C@@H](C)O)c(C)c34)ccc2[nH]1 [Brivanib]; settings: 10 µM; K562; 2-18 h
# [3] = compound: Cc1cc2ncnn2cc1Nc1ncc2c(n1)n(C1CCOCC1)c(=O)n2C; settings: 10 µM; K562; 2-18 h
# Doramapimod = compound: Cc1ccc(-n2nc(C(C)(C)C)cc2NC(=O)Nc2ccc(OCCN3CCOCC3)c3ccccc23)cc1 [Doramapimod]; settings: 10 µM; K562; 2-18 h
# [4] = compound: Cc1ccc(Nc2nccc(N(C)c3ccc4c(C)n(C)nc4c3)n2)cc1S(N)(=O)=O [Pazopanib (Hydrochloride)]; settings: 10 µM; K562; 2-18 h
# Pazopanib = compound: Cc1ccc(Nc2nccc(N(C)c3ccc4c(C)n(C)nc4c3)n2)cc1S(N)(=O)=O [Pazopanib]; settings: 10 µM; K562; 2-18 h
# Lck inhibitor 2 = compound: Cc1ccc(O)cc1Nc1ccnc(Nc2cccc(C(N)=O)c2)n1 [Lck inhibitor 2]; settings: 10 µM; K562; 2-18 h
# Vadimezan = compound: Cc1ccc2c(=O)c3cccc(CC(=O)O)c3oc2c1C [Vadimezan]; settings: 10 µM; K562; 2-18 h
# Nilotinib = compound: Cc1cn(-c2cc(NC(=O)c3ccc(C)c(Nc4nccc(-c5cccnc5)n4)c3)cc(C(F)(F)F)c2)cn1 [Nilotinib]; settings: 2.5 µM; K562; 2-18 h
# [5] = compound: Cc1cnc(Nc2ccc(OCCN3CCCC3)cc2)nc1Nc1cccc(S(=O)(=O)NC(C)(C)C)c1 [Fedratinib (hydrochloride hydrate)]; settings: 2.5 µM; K562; 2-18 h
# Fedratinib = compound: Cc1cnc(Nc2ccc(OCCN3CCCC3)cc2)nc1Nc1cccc(S(=O)(=O)NC(C)(C)C)c1 [Fedratinib]; settings: 2.5 µM; K562; 2-18 h
# Dasatinib = compound: Cc1nc(Nc2ncc(C(=O)Nc3c(C)cccc3Cl)s2)cc(N2CCN(CCO)CC2)n1 [Dasatinib]; settings: 2.5 µM; K562; 2-18 h
# [6] = compound: Cn1cc(/C=C2\C(=O)Nc3cccnc32)c2ccccc21; settings: 10 µM; K562; 2-18 h
# [7] = compound: Fc1ccc(-c2nc(-c3ccc4ccccc4c3F)[nH]c2-c2ccncc2)cc1; settings: 10 µM; K562; 2-18 h
# [8] = compound: Cc1[nH]c(/C=C2\C(=O)Nc3ccc(F)cc32)c(C)c1C(=O)NC[C@H](O)CN1CCOCC1; settings: 2.5 µM; K562; 2-18 h
Target,number of time points (Lorlatinib),number of time points [1],number of time points (ENMD-2076 (Tartrate)),number of time points [2],number of time points (Brivanib),number of time points [3],number of time points (Doramapimod),number of time points [4],number of time points (Pazopanib),number of time points (Lck inhibitor 2),number of time points (Vadimezan),number of time points (Nilotinib),number of time points [5],number of time points (Fedratinib),number of time points (Dasatinib),number of time points [6],number of time points [7],number of time points [8]
JAK1 (UniProt P23458),0,0,0,0,0,0,0,0,0,0,0,3,0,0,2,0,0,
NTRK3 (UniProt Q16288),0,0,0,0,0,,,0,0,0,0,,,,1,2,0,
EGFR_G719S (UniProt P00533),0,0,,,0,0,0,0,0,0,0,3,0,0,,,0,0
EGFR (UniProt P00533),0,0,,,0,0,0,0,0,0,0,1,0,0,,,0,0
MAP4K2 (UniProt Q12851),0,0,0,0,0,,0,0,0,0,0,0,0,0,0,0,0,0
LIMK1 (UniProt P53667),0,0,0,0,0,,0,,,0,0,3,0,0,3,0,0,0
LCK (UniProt P06239),0,0,,,,0,0,0,0,0,0,0,0,0,,0,0,0
EGFR_L861Q (UniProt P00533),0,0,,,0,0,0,0,0,0,0,2,0,0,,,4,0
PTK2B (UniProt Q14289),0,0,0,0,0,0,,0,0,0,0,1,0,0,2,0,0,
EGFR_L718V (UniProt P00533),0,0,,,0,0,0,0,0,0,0,1,0,0,,,2,0
SYK (UniProt P43405),0,0,,,0,,0,0,0,,0,1,0,0,0,0,0,0
EGFR_L858R (UniProt P00533),0,0,,,0,0,0,0,0,0,0,1,0,0,,,0,0
RPS6KA1 (UniProt Q15418),0,0,0,0,0,0,0,0,0,0,0,1,0,0,0,0,0,
LIMK2 (UniProt P53671),0,0,0,0,0,,0,0,0,0,0,2,0,0,2,0,0,0
CHEK2 (UniProt O96017),0,0,0,0,0,,0,0,0,0,0,2,0,0,1,0,0,0
LYN (UniProt P07948),0,0,0,0,0,,0,0,0,0,0,4,0,0,1,0,0,0
PTK2 (UniProt Q05397),0,0,,,0,0,,0,0,0,0,2,0,0,2,0,5,0
BLK (UniProt P51451),0,,0,0,0,,0,0,0,0,0,1,0,0,2,,0,0
MAP2K1 (UniProt Q02750),0,0,0,0,0,,0,0,0,0,0,0,0,0,0,0,0,0
MAPK4 (UniProt P31152),0,0,0,0,0,,0,0,0,0,0,2,0,0,1,0,0,0
EGFR_G719S_T790M (UniProt P00533),0,0,,,0,0,0,0,1,0,0,0,0,0,,,4,0
FGFR3 (UniProt P22607),0,0,0,0,0,,0,0,0,0,0,0,0,0,3,0,0,0
AURKB (UniProt Q96GD4),0,0,0,0,0,,0,0,0,0,0,1,0,0,1,0,,
ALK (UniProt Q9UM73),,0,0,0,0,,0,0,0,0,0,3,0,0,1,0,0,0
EGFR_T790M (UniProt P00533),0,0,,,0,0,0,0,0,0,0,0,0,0,,,0,0
ABL1 (UniProt P00519),0,0,,,,,,,,2,,,,,,0,0,
